pIC50: −log10 of the molar value.
Tests used:
[1] = test system: Spheroid of immortalized PHHs; parameters: method as in ref 10 (a number printed in a supplementary file, which may have a reference list of its own: not looked up in the article's list); settings: 24 h, ATP; cited from earlier work
[2] = test system: cells cultured in AAGLY medium; assay: Single-exposure toxicity, summary value of this study (Boon et al); format: cell-based; settings: Homo sapiens, single 24 h exposure
Method: To evaluate the ability to predict hepatotoxicity, we adapted the differentiation assays to a 384-well format. […] As a readout, we evaluated cell viability by resazurin conversion and correlated the results to therapeutic doses (Cmax values).
PSCs were differentiated in a 384-well format. […] As a negative control, 41 wells were left untreated. HepG2 were seeded at 40,000 cells per well. […] Cells were fixed with 4% PFA. […] Drugs were administrated after 8 h of attachment.

[3] = test system: Co-culture of PHHs and fibroblasts; parameters: method as in ref 4 (a number printed in a supplementary file, which may have a reference list of its own: not looked up in the article's list); settings: 24h, ATP; cited from earlier work
[4] = test system: Spheroid of PHHs; parameters: method as in ref 3 (a number printed in a supplementary file, which may have a reference list of its own: not looked up in the article's list); settings: 48h, ATP; cited from earlier work

## CCCCc1oc2ccccc2c1C(=O)c1cc(I)c(OCCN(CC)CC)c(I)c1 [Amiodarone, amiodarone]
[1]
  pIC50: 3.59
[2]
  pIC50: 5.00 to 5.30
[3]
  pIC50: 4.48
[4]
  pIC50: < 4.00

From PMC7069944, “Amino acid levels determine metabolism and CYP450 function of hepatocytes and hepatoma cell lines” (Nature Communications, 2020)
